The text below walks through data of PubChem BioAssay (NCATS).

Values joined by “and” are separate entries in the source; they are usually repeats but may differ in a detail not shown here. Identical values can stand only once. The list shows a part of the results. These are further read-outs of the screen, such as a control signal, another cell line or another target. No call is given for them. Most of these compounds were active or inconclusive in the main read-out, so they are no random draw. For some of these results: Potencies come from curve fits of mixed quality, noted in brackets.

Assay [1] is described as follows: qHTS assay for small molecule antagonists of peroxisome proliferator-activated receptor gamma signaling (AID 588537). As to conditions: HEK293 PPARg-UAS-bla, beta-lactamase ratio, antagonist mode; measured here: W460 blue channel. Summed up:
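PPAR-gamma-UAS-bla HEK293 cells (3000/well, 1% charcoal/dextran-stripped FBS) were preincubated 6-6.5 h at 37 C, given titrated compounds, then stimulated with 50 nM rosiglitazone for 16 h. Beta-lactamase activity was read with CCF4 dye; IC50 came from Hill fits.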

A short description of assay [2]: qHTS assay for small molecule antagonists of peroxisome proliferator-activated receptor delta signaling (AID 588535).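 Further: cells co-treated with a PPAR-delta agonist as stimulator during compound exposure.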 As to conditions: HEK293T PPARd-UAS-bla, beta-lactamase FRET ratio, 18 h; 460 nm channel. An outline of the steps: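 GeneBLAzer PPAR-delta-UAS-bla HEK293T cells in medium with 2% charcoal/dextran FBS were preincubated 5 hrs at 37 C, then given compounds, incubated 18 hrs at 37 C, and read by CCF4 beta-lactamase fluorescence; IC50 from Hill fits.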
(In qHTS, concentration-response curves come from the screen itself.)

Assay [3] in a line: qHTS assay for small molecule agonists of retinoid X receptor alpha signaling (AID 588544). Conditions: HEK293T RXRa-UAS-bla, beta-lactamase reporter, 18 h; 530 nm emission.
Assay [4] in a line: qHTS assay for small molecule antagonists of retinoid X receptor alpha signaling (AID 588546).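 Further: cells stimulated with 9-cis-retinoic acid as agonist; on the % scale 0 is the no-effect control and ±100 the full control effect.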 As to conditions: HEK293T RXRa-UAS-bla, beta-lactamase ratio, antagonist mode; measured here: W530 green channel, cytotoxicity proxy. An outline of the steps: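 Beta-lactamase reporter inhibition, read as CCF4 fluorescence ratio (ex 405, em 460/530 nm) after 2 h at RT. HEK293T UAS-bla cells, 2500/well, were stimulated with 9-cis-RA at 500 or 100 nM final alongside test compound for 18 h at 37 C.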

A short description of assay [5]: S16 Schwann cell PMP22 intronic element beta-lactamase assay (AID 624044). As to conditions: S16 rat Schwann cells, PMP22 element beta-lactamase FRET, 24 h; measured here: 460 nm blue channel. Summed up:
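Rat S16 Schwann cells with beta-Lac driven by a PMP22 intronic element, compound-treated 24 h at 37 °C. LiveBLAzer FRET B/G read: 460 nm normalized to potassium clavulanate vs DMSO; 535 nm FRET as viability; concentration-effect curves classified.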

As to `BrCCBr`, the AC50 – broadly, the concentration giving half of the maximal activity seen – in assay [1] was 50.1 µM [rising, single point].

As to `CN(C)N=O`, the AC50 in assay [1] is 50.1 µM [rising, single point].

With `C[C@H]1CC[C@@H]2[C@@H](C)[C@H]3[C@H](C[C@H]4[C@@H]5CC=C6CC(O[C@@H]7O[C@H](CO)[C@H](O)[C@H](O[C@@H]8O[C@H](CO)[C@@H](O)[C@H](O)[C@H]8O)[C@H]7O[C@H]7O[C@@H](C)[C@H](O)[C@@H](O)[C@H]7O)CC[C@]6(C)[C@H]5CC[C@]34C)N2C1` (stereo partly drawn), the max response was -38.2% in assay [2], -52.7% in assay [3] and -43.1% in assay [4]. For the same compound, the AC50 in assay [5] was 7.94 µM [falling, full curve, poor fit].

Turning to `O=Cc1ccc2c(c1)OCO2`, in assay [1], the AC50 was 50.1 µM [rising, single point].

Take `CC(C)Nc1ccc(Nc2ccccc2)cc1`: the max response in assay [2] was -31.7%; in assay [3], 50.3%; in assay [4], -11.3%. For the same compound, the AC50 in assay [5] is 0.00999 µM [falling, full curve, poor fit].

Regarding `ClC(Cl)=C(Cl)C(Cl)=C(Cl)Cl`, the half-maximal activity concentration (AC50) in assay [1] is 50.1 µM [rising, single point] and 35.5 nM [falling, full curve, poor fit].

As to `ClCC(Cl)Cl`, in assay [1], the AC50 is 50.1 µM [rising, single point].

In the case of `Cc1ccccc1N`, the max response was determined as 7.06% in assay [2] and 0.639% in assay [4].

In the case of `ClC(Cl)(Cl)Cl`, the max response was 124% in assay [2] and -6.87% in assay [4].

On to `CC(Cl)Cl`, for which the AC50 in assay [1] is 70.8 µM [rising, single point].

For `O=NN1CCCCC1`, the concentration at half-maximal activity (AC50) in assay [1] is 63.1 µM [rising, single point].

On to `O=C(O)C1(O)c2ccccc2-c2ccc(Cl)cc21` (stereo not drawn), for which the max response in assay [2] was -56.4%; in assay [3] it was -46.4%; in assay [4] it was -47.7%.

Turning to `CC(C)OC(=O)Cc1ccccc1`, in assay [1], the AC50 was 70.8 µM [rising, single point].

For the compound `Oc1ccc(C2(c3ccc(O)cc3)c3ccccc3-c3ccccc32)cc1`, the max response in assay [2] is -72%; in assay [3], -0.826%; in assay [4] it was -53.1%.

For the compound `CNC(=O)CSP(=S)(OC)OC`, the max response in assay [2] is -12.3%; in assay [3], 16.8%; in assay [4] it was -18.9%.

Consider `C=C(C)CCl`, for which, in assay [1], the AC50 was 50.1 µM [rising, single point].

In the case of `COc1cc(-c2ccc(N)c(OC)c2)ccc1N`, the max response is -12.8% in assay [2], -31.8% in assay [3] and -52.6% in assay [4].

On to `Oc1ccc(Cl)c(Cl)c1Cl`, for which the results for the max response in assay [2] and in assay [4] were 129% and -7.6%, respectively.

In the case of `CC(C)(C#N)N=NC(C)(C)C#N`, the AC50 in assay [1] is 0.0708 µM [falling, full curve, poor fit].

Turning to `O=[N+]([O-])c1ccccc1`, the max response was -70.2% in assay [2] and 1.65% in assay [4].

For the compound `O=C(O)C(Cl)(Cl)Cl`, the max response in assay [2] was -44.1%; in assay [4], -16.6%.

Take `O=[N+]([O-])c1ccc2ccc3cccc4ccc1c2c34`: the values for the max response in assay [2] and in assay [4] were 10.3% and 34.3%, respectively.

Turning to `CN1CSC(=S)N(C)C1`, the max response in assay [2] was -39.8% and -60.9%; in assay [3] it was 33.6% and 23.8%; in assay [4], 14.1%.

With `COP(=O)(OC)OC=C(Cl)Cl`, the max response in assay [2] was -32.7%; in assay [3], -5.01%; in assay [4], -4.52%. The AC50 in assay [5] is 15.8 µM [falling, partial curve].

In the case of `COc1nn(CSP(=S)(OC)OC)c(=O)s1`, the max response in assay [2] is -2.88%; in assay [4], -2.63%.

For `C=CCOCC1CO1` (stereo not drawn), the AC50 in assay [1] was 63.1 µM [rising, single point].

With `C=CC(=O)OCCN(C)C`, in assay [1], the AC50 is 50.1 µM [rising, single point].

On to `COC(C)(C)CCC[C@H](C)C/C=C/C(C)=C/C(=O)OC(C)C`, for which, in assay [1], the AC50 was 44.7 µM [falling, partial curve, poor fit].

Regarding `O=[N+]([O-])c1c(Cl)c(Cl)cc(Cl)c1Cl`, in assay [1], the AC50 is 39.8 µM [falling, partial curve, poor fit].

As for `COC1=CC(=O)OC(CCc2ccc3c(c2)OCO3)C1` (stereo not drawn), the max response came out at 48.4% in assay [2], 55.4% in assay [3] and 26.6% in assay [4].

For the compound `N#Cc1c(Cl)cccc1Cl`, the AC50 in assay [1] was 0.00158 µM [falling, full curve, poor fit].

As for `Cc1cccc2sc3nncn3c12`, the AC50 in assay [1] is 0.0178 µM [falling, full curve, poor fit].

For `CCCCCl`, the AC50 in assay [1] was 50.1 µM [rising, single point].

For `CC(C)N1C(=O)c2ccccc2NS1(=O)=O`, the AC50 in assay [1] was 0.00126 µM [falling, full curve, poor fit].

As to `O=[As](O)(O)O`, the half-maximal activity concentration (AC50) in assay [1] was 0.000251 µM [falling, full curve, poor fit].

Turning to `O=C(Cc1ccccc1)OCc1ccccc1`, in assay [1], the AC50 is 70.8 µM [rising, single point].

In the case of `CC(C)[N+](=O)[O-]`, in assay [1], the AC50 is 70.8 µM [rising, single point].

Regarding `c1ccc(Nc2ccc3ccccc3c2)cc1`, the AC50 in assay [1] is 50.1 µM [rising, single point].

As for `Cc1cccc(C)c1N`, the AC50 in assay [1] is 50.1 µM [rising, single point].

`CC1(C)[C@H](C(=O)O[C@H](C#N)c2cccc(Oc3ccccc3)c2)[C@@H]1/C=C(\Cl)C(F)(F)F`: in assay [1], the half-maximal activity concentration (AC50) is 44.7 µM [falling, partial curve, poor fit].

Consider `ClC(Cl)c1ccccc1`, for which the AC50 in assay [1] is 70.8 µM [rising, single point].

On to `c1ccc(Nc2cccc3ccccc23)cc1`, for which, in assay [1], the AC50 is 44.7 µM [falling, partial curve, poor fit] and 44.7 µM [falling, partial curve].

With `Nc1ccc2ccccc2c1`, in assay [1], the AC50 is 20 µM [falling, partial curve, poor fit].

Turning to `S=C=S`, the AC50 in assay [1] is 70.8 µM [rising, single point].

As for `O=[N+]([O-])CCO`, the AC50 in assay [1] was 50.1 µM [rising, single point].
